# From publication PMC5794190
# T1: 3xFLAG-HCMV-UL48 (amino acid residues 1-263), N-terminal catalytic domain (HCMV (human cytomegalovirus)) (UniProt P16785)
# T1 sequence: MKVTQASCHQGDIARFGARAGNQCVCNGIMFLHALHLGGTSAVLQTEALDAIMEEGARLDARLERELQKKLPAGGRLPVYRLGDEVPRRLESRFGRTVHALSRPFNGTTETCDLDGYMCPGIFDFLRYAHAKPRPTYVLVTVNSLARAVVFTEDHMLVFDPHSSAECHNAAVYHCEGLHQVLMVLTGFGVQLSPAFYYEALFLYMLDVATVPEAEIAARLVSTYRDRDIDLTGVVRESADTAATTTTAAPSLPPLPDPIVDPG
# T2: 3xFLAG-KSHV-ORF64 (amino acid residues 1-205), N-terminal catalytic domain (KSHV) (UniProt Q2HR64)
# T2 sequence: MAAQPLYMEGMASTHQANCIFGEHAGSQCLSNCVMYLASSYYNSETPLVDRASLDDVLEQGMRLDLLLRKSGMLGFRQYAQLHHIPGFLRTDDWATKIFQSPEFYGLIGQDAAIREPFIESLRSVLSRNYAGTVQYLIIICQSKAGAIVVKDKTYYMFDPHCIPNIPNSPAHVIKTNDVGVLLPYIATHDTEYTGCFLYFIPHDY
# B1: 14-3-3γ (protein, UniProt P61981 1-247)
# chain: MVDREQLVQKARLAEQAERYDDMAAAMKNVTELNEPLSNEERNLLSVAYKNVVGARRSSWRVISSIEQKTSADGNEKKIEMVRAYREKIEKELEAVCQDVLSLLDNYLIKNCSETQYESKVFYLKMKGDYYRYLAEVATGEKRATVVESSEKAYSEAHEISKEHMQPTHPIRLGLALNYSVFYYEIQNAPEQACHLAKTAFDDAIAELDTLNEDSYKDSTLIMQLLRDNLTLWTSDQQDDDGGEGNN
# B2: 14-3-3η (protein, UniProt Q04917 1-246)
# chain: MGDREQLLQRARLAEQAERYDDMASAMKAVTELNEPLSNEDRNLLSVAYKNVVGARRSSWRVISSIEQKTMADGNEKKLEKVKAYREKIEKELETVCNDVLSLLDKFLIKNCNDFQYESKVFYLKMKGDYYRYLAEVASGEKKNSVVEASEAAYKEAFEISKEQMQPTHPIRLGLALNFSVFYYEIQNAPEQACLLAKQAFDDAIAELDTLNEDSYKDSTLIMQLLRDNLTLWTSDQQDEEAGEGN
# Legend:
# Experiment in all cases: co-IP; anti-FLAG agarose on lysates of transfected HeLa, U2OS or HEK293T cells (NP-40 lysis buffer), elution with 3xFLAG peptide, western blot; in Fig 7A with co-transfected HA-TRIM25, in Fig 5C with co-transfected HA- and FLAG-TRIM25
# [1] = molecular target: T1, 3xFLAG-HCMV-UL48 (amino acid residues 1-263), N-terminal catalytic domain (HCMV (human cytomegalovirus))
# [2] = molecular target: T2, 3xFLAG-KSHV-ORF64 (amino acid residues 1-205), N-terminal catalytic domain (KSHV)
# [3] = molecular target: FLAG-BPLF1C61A, catalytic mutant of the BPLF1 N-terminal domain (Epstein-Barr virus)
Molecule,binding [1],binding [2],binding [3]
"14-3-3 (endogenous, detected with a pan-14-3-3 antibody)",binds,binds,
B1,,,binds
B2,,,binds

# These are yes or no findings as the source states them, for the method shown. In cells and extracts the contact can be indirect. Binding calls can cover weak binding; strength is not graded here. For some of these results: Tags and fused reporters may be left off the sequences shown.
